PubChem BioAssay AID1224826 | NIAID, 2016

Purpose: 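Knock-downs that raise or lower Tnf reporter signal after endotoxin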 (primary screen)
Cells: RAW264.7 G9 macrophages from mouse bearing reporters for p65 (GFP) and the Tnf promoter (mCherry)
Knock-down reagent: siRNA pool against mouse genes, 100 nM
Time to read-out: 16 h of LPS stimulation, after 2 days of siRNA transfection
Treatment: bacterial lipopolysaccharide (Salmonella minnesota R595), 10 ng/ml
Read-out: 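Imaged Tnf reporter mCherry in nuclei, minus background, normalised per plate to the median and expressed as robust z-scores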
Reading the numbers: Tnf reporter robust z-score: higher = stronger Tnf promoter reporter signal after LPS; Tnf reporter intensity: higher = stronger Tnf promoter reporter signal
Call rule: 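a well counts as active at a score of -1.3 or below (Tlr4 knock-down control median) or above 3 (raised signal); controls and wells holding fewer than 50 cells are excluded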
Calls: active = Tnf reporter clearly lowered or raised; inactive = no clear change in Tnf reporter
Here is an unselected part of about 17,000 reagents tested. About 1,110 of them (6.6%) were called active. 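Active means lowered or raised reporter signal; replicate intensities are raw and not normalised per plate.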 Reagent sequences are not shown.

Target gene | Tnf reporter robust z-score | fewer than 50 cells in well | Tnf reporter intensity, replicate 1 | Tnf reporter intensity, replicate 2 | Call
Gapvd1 | 2.23 | enough cells in well | 332 | 106 | inactive
Isg15 | 0.88 | enough cells in well | 312 | 183 | inactive
Gins3 | -0.46 | enough cells in well | 229 | 53.6 | inactive
Ercc6l | 0.03 | enough cells in well | 202 | 217 | inactive
C230013L11Rik | 2.16 | enough cells in well | 262 | 287 | inactive
Olig2 | -0.75 | enough cells in well | 197 | 124 | inactive
Kdelr1 | 5.62 | enough cells in well | 615 | 340 | active
Dsg1a | -0.54 | enough cells in well | 152 | 94.5 | inactive
Or6b9 | -0.72 | enough cells in well | 89.7 | 87.3 | inactive
Rpl22 | -1.17 | enough cells in well | 81 | 73.9 | inactive
Fcgr3 | -0.39 | enough cells in well | 192 | 208 | inactive
Agt | -0.75 | enough cells in well | 120 | 133 | inactive
Hsf2 | 0.57 | enough cells in well | 318 | 194 | inactive
A430005L14Rik | – | fewer than 50 cells per well; well left out of calls | 117 | 109 | inactive
Runx3 | -0.17 | enough cells in well | 346 | 157 | inactive
Neurl1a | -0.79 | enough cells in well | 175 | 166 | inactive
Dynll2 | – | fewer than 50 cells per well; well left out of calls | 97.5 | 57.6 | inactive
Dmac1 | – | fewer than 50 cells per well; well left out of calls | 184 | 75.6 | inactive
Dnajc22 | -1.38 | enough cells in well | 117 | 25.6 | active
Astn1 | 1.35 | enough cells in well | 230 | 257 | inactive
Nox3 | -1.36 | enough cells in well | 134 | 55.1 | active
Snupn | -0.12 | enough cells in well | 323 | 179 | inactive
Pum1 | 0.69 | enough cells in well | 151 | 169 | inactive
Crabp2 | 1.16 | enough cells in well | 268 | 233 | inactive
Dock3 | -0.27 | enough cells in well | 192 | 205 | inactive
Pitx2 | 0.74 | enough cells in well | 297 | 249 | inactive
Tmeff2 | 0.98 | enough cells in well | 174 | 109 | inactive
Mepe | 0.59 | enough cells in well | 215 | 186 | inactive
Gpr45 | 0.24 | enough cells in well | 237 | 310 | inactive
Plce1 | 0.05 | enough cells in well | 131 | 132 | inactive
Zbtb20 | -0.45 | enough cells in well | 104 | 68.7 | inactive
Fchsd2 | 0.76 | enough cells in well | 318 | 167 | inactive
Tacstd2 | -1.48 | enough cells in well | 109 | 71.6 | active
Epb41l1 | 0.18 | enough cells in well | 286 | 129 | inactive
Mindy1 | – | fewer than 50 cells per well; well left out of calls | 230 | 69.4 | inactive
Ptpn11 | -0.16 | enough cells in well | 233 | 182 | inactive
Phc1 | -0.09 | enough cells in well | 242 | 184 | inactive
Osmr | -0.23 | enough cells in well | 226 | 165 | inactive
Or5w1 | -0.16 | enough cells in well | 212 | 114 | inactive
Avp | 0.7 | enough cells in well | 163 | 222 | inactive

Entries listed so far called active, once more:
Target gene | Tnf reporter robust z-score | fewer than 50 cells in well | Tnf reporter intensity, replicate 1 | Tnf reporter intensity, replicate 2 | Call
Kdelr1 | 5.62 | enough cells in well | 615 | 340 | active
Dnajc22 | -1.38 | enough cells in well | 117 | 25.6 | active
Nox3 | -1.36 | enough cells in well | 134 | 55.1 | active
Tacstd2 | -1.48 | enough cells in well | 109 | 71.6 | active
